Some of the results follow. The main result of the screen is listed elsewhere. These columns were measured beside it and carry no call. Most of these compounds were active or inconclusive in the main read-out, so they are no random draw. Words in brackets tell the shape of the fitted curve; partial curves, single points and poor fits give uncertain potencies.

17 molecules from PubChem BioAssay AID2685 (National Center for Advancing Translational Sciences (NCATS), 2010) can be followed below.

This experiment can be described thus: qHTS Assay for Lipid Storage Modulators in Drosophila S3 Cells.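 As to cell number change: cells counted by Cell Tracker Red CMTPX staining in the red channel.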 The following applies: BODIPY lipid droplet fluorescence, 18-24 h; for cell number change: measured here: cell count max response, cells fed with added oleic acid. In short, it runs like this: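 Laser-scanning cytometry quantifies lipid droplet accumulation (500–530 nm total intensity; droplet/cell object ratio) in oleic acid-fed (400 uM added) Drosophila S3 cells treated with a concentration series. 20 uM Triacsin C defined 100% inhibition.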
For orientation: In qHTS, concentration-response curves come from the screen itself.

[1] abbreviates: measured here: lipid fluorescence (Fed channel) AC50, cells fed with added oleic acid.
The mark [2] stands for this setting: measured here: cell number channel AC50, cells fed with added oleic acid.

For the molecule `CCn1ncc(CN2CCN(C(=O)Nc3ccccc3C(=O)OC)CC2)c1C`, the cell number change is -3.84%.

For the molecule `COc1ccc(CCC(=O)OCc2csc(CC(=O)Nc3ccccc3C)n2)cc1`, the cell number change is -20.6%. For the same molecule, the AC50 under setting [1] is 65.1 nM [falling, full curve, poor fit].

For the molecule `O=C(Cc1ccccc1F)Nc1cc(S(=O)(=O)N2CCCC2)ccc1Cl`, the cell number change is -14.2%. For the same molecule, the AC50 under setting [1] is 29100 nM [falling, single point].

In the case of `CC1CN(c2nc3c(c(=O)n(Cc4ccc(Cl)cc4)c(=O)n3C)n2C)CC(C)O1` (stereo unspecified), the cell number change was -4.45%.

Turning to `CCOc1ccc(S(=O)(=O)Nc2cccc(C(=O)N3CCN(C(C)=O)CC3)c2)cc1`, the cell number change is 15.2%. Also, the AC50 under setting [1] was 116 nM [falling, single point].

Turning to `COc1ccc(NC(=O)CCCN2C(=O)C(c3ccccc3)Oc3cccnc32)c(OC)c1` (stereo unspecified), the cell number change was 1.65%.

With `O=C(COc1ccccc1F)NC1CC1`, the cell number change is -16.8%. Besides, the AC50 under setting [1] is 366 nM [falling, full curve].

`CCc1ccc(N2CC(C(=O)Nc3cccc(S(=O)(=O)N4CCCC4)c3)CC2=O)cc1` (stereo unspecified): the cell number change stood at 4.17%. Further, the AC50 under setting [1] is 13000 nM [rising, partial curve].

For the molecule `O=C(O)CCc1ccc(-c2ccccc2)n1NC(=O)c1sc2ccccc2c1Cl`, the cell number change came out at 1.05%. For the same molecule, under setting [1], the AC50 was 51.7 nM [rising, full curve, poor fit].

In the case of `O=C(O)Cn1cnc2ccccc2c1=O`, the AC50 under setting [2] is 6510 nM [falling, single point] and the half-maximal activity concentration (AC50) under setting [1] was 29100 nM [falling, single point].

In the case of `COc1ccc(CNC(=O)c2ccc(S(=O)(=O)N3CCCC3)cc2)cc1OC`, the cell number change is 13%.

For the molecule `O=C(CCC(=O)OCC(=O)c1ccc(F)cc1)NC1CCCCC1`, the cell number change was -10.9%. Also, the AC50 under setting [2] was 2310 nM [falling, partial curve, poor fit]. The AC50 under setting [1] was 23100 nM [falling, partial curve].

`C[C@H](NC(=O)c1nc[nH]c1C(=O)NCc1ccc(CNC(=O)OC(C)(C)C)cc1)c1ccccc1`: the cell number change was -29.8%.

Take `CN(C)S(=O)(=O)c1cccc(NC(=O)c2ccc(OC(F)(F)F)cc2)c1`: the cell number change was -28.4%. For the same molecule, the AC50 under setting [2] was 4110 nM [falling, full curve, poor fit]. Further, the AC50 under setting [1] was 1640 nM [falling, partial curve, poor fit].

On to `Cc1ccc(/C=C2\SC(=S)N(CCCC(=O)Nc3ccc(O)cc3)C2=O)cc1`, for which the cell number change is -36.4%. Moreover, the AC50 under setting [2] is 29100 nM [falling, single point].

For the molecule `Cc1cc2oc(C(=O)Nc3nonc3C)c(C)c2cc1C`, the cell number change was 3.12%.

In the case of `CC1CCCCN1CCCNC(=O)c1ccc2c(=O)n(CCc3ccccc3)c(=O)[nH]c2c1` (stereo unspecified), the cell number change is -6.17%. For the same molecule, the AC50 under setting [2] is 231 nM [falling, full curve]. In addition, under setting [1], the concentration at half-maximal activity (AC50) is 731 nM [falling, single point].

The term AC50 denotes the concentration giving half of the maximal activity seen. A lower AC50 goes with activity at low concentration.
